Reference: PubChem BioAssay AID1053208 (Peter MacCallum Cancer Centre, 2014)
The whole screen tested about 17,000 reagents; shown is a part drawn at random. Over the whole deposit, 788 (4.7%) are marked active. 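Calls rest on z-score classes alone; an extra cut-off of viability at most 70% of control was not applied to them.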 Further read-outs or replicates are left out here.

Test: 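Synthetic lethal interactions between gene loss and doxorubicin in osteosarcoma cells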 (primary screen)
System: mouse osteosarcoma cells, early-passage culture from an engineered mouse model of fibroblastic bone tumour
Reagent: siRNA pool against mouse genes, 40 nM
Timing: about 120 h (48 h before drug, then 72 h with drug)
Treatment: doxorubicin 100 nM for 72 h, roughly 30-40% inhibitory dose
Detection: 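Luminescent ATP signal taken as viability with or without 100 nM doxorubicin for 72 h; mean of two wells set against non-targeting siRNA and turned into robust z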
Reading the numbers: viability z-score with doxorubicin: higher = more viable cells under doxorubicin; viability z-score without drug: higher = more viable cells with knock-down alone
Active means: 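a pool counts as active when its viability z-score with doxorubicin is -2 or below and its z-score without drug lies between -2 and 2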

Or1n1 [SID152313388] — combined z-score class: no change with or without drug; viability z-score with doxorubicin: -0.34; viability z-score without drug: 0.84; call: inactive
Tub [SID152290357] — combined z-score class: no change with or without drug; viability z-score with doxorubicin: 1.35; viability z-score without drug: 1.52; call: inactive
Rsph1 [SID152333049] — combined z-score class: no change with or without drug; viability z-score with doxorubicin: -1.35; viability z-score without drug: -0.17; call: inactive
Gucy1b2 [SID152336528] — combined z-score class: no change with or without drug; viability z-score with doxorubicin: 0.45; viability z-score without drug: 0.17; call: inactive
Dnajb5 [SID152319845] — combined z-score class: high cell count without drug only; viability z-score with doxorubicin: -0.56; viability z-score without drug: 2.02; call: inactive
Fra10ac1 [SID152271188] — combined z-score class: no change with or without drug; viability z-score with doxorubicin: -0.79; viability z-score without drug: 0.51; call: inactive
Kcnj11 [SID152333974] — combined z-score class: no change with or without drug; viability z-score with doxorubicin: -0.45; viability z-score without drug: 0.34; call: inactive
Sh3glb2 [SID152290375] — combined z-score class: no change with or without drug; viability z-score with doxorubicin: 0; viability z-score without drug: -0.84; call: inactive
Magi1 [SID152261866] — combined z-score class: no change with or without drug; viability z-score with doxorubicin: 1.01; viability z-score without drug: 1.18; call: inactive
Cebpb [SID152305457] — combined z-score class: no change with or without drug; viability z-score with doxorubicin: 1.12; viability z-score without drug: 1.35; call: inactive
Kit [SID152311003] — combined z-score class: no change with or without drug; viability z-score with doxorubicin: 0; viability z-score without drug: -1.85; call: inactive
Or1j12 [SID152318520] — combined z-score class: no change with or without drug; viability z-score with doxorubicin: -0.11; viability z-score without drug: -1.85; call: inactive
Evpl [SID152335245] — combined z-score class: no change with or without drug; viability z-score with doxorubicin: 0.11; viability z-score without drug: 1.52; call: inactive
Phf24 [SID152314035] — combined z-score class: no change with or without drug; viability z-score with doxorubicin: 1.12; viability z-score without drug: 1.01; call: inactive
Ebf4 [SID152320639] — combined z-score class: no change with or without drug; viability z-score with doxorubicin: -0.22; viability z-score without drug: 0.17; call: inactive
Il22ra1 [SID152336865] — combined z-score class: no change with or without drug; viability z-score with doxorubicin: -0.9; viability z-score without drug: -1.52; call: inactive
Abhd3 [SID152327057] — combined z-score class: no change with or without drug; viability z-score with doxorubicin: -0.22; viability z-score without drug: 0.84; call: inactive
Acacb [SID152286208] — combined z-score class: no change with or without drug; viability z-score with doxorubicin: 1.12; viability z-score without drug: 1.01; call: inactive
Cfap298 [SID152330708] — combined z-score class: no change with or without drug; viability z-score with doxorubicin: -1.57; viability z-score without drug: -0.17; call: inactive
Hras [SID152339954] — combined z-score class: no change with or without drug; viability z-score with doxorubicin: 0.45; viability z-score without drug: 1.52; call: inactive
Rab32 [SID152313711] — combined z-score class: no change with or without drug; viability z-score with doxorubicin: 1.12; viability z-score without drug: 0.84; call: inactive
Agr3 [SID152290078] — combined z-score class: high cell count with doxorubicin only; viability z-score with doxorubicin: 2.47; viability z-score without drug: 1.85; call: inactive
Slx4 [SID152292121] — combined z-score class: no change with or without drug; viability z-score with doxorubicin: 0.45; viability z-score without drug: -0.84; call: inactive
Pgm1 [SID152291461] — combined z-score class: no change with or without drug; viability z-score with doxorubicin: -1.35; viability z-score without drug: 0.17; call: inactive
Hs3st1 [SID152269069] — combined z-score class: no change with or without drug; viability z-score with doxorubicin: 1.24; viability z-score without drug: 0.51; call: inactive
Msmb [SID152338572] — combined z-score class: no change with or without drug; viability z-score with doxorubicin: 0.34; viability z-score without drug: 0.17; call: inactive
Dolpp1 [SID152269099] — combined z-score class: no change with or without drug; viability z-score with doxorubicin: 0.11; viability z-score without drug: 1.01; call: inactive
Mapkbp1 [SID152308868] — combined z-score class: no change with or without drug; viability z-score with doxorubicin: 0.56; viability z-score without drug: 0.51; call: inactive

An excerpt from above, limited to “viability z-score without drug”.
Rab32 [SID152313711] = 0.84
Agr3 [SID152290078] = 1.85
Slx4 [SID152292121] = -0.84
Pgm1 [SID152291461] = 0.17
